Results are given in words; binding and its absence hold for the method and conditions named. In cells and extracts the contact can be indirect. Here binding means that the protein was enriched with, or labelled near, the bait; the list need not be complete. For some assays here: A no says only that the protein was not detected with the bait. Sequences can lack the tags named with a protein.
What was measured:
[1] = target: T1, Myc-BioID2-TRIP13 (human) (UniProt Q15645); assay: proximity labelling; biotin pulldown from BioID2-TRIP13-expressing U-2-OS cells (doxycycline induced), Western blot; with or without CPT for one hour
T1 sequence: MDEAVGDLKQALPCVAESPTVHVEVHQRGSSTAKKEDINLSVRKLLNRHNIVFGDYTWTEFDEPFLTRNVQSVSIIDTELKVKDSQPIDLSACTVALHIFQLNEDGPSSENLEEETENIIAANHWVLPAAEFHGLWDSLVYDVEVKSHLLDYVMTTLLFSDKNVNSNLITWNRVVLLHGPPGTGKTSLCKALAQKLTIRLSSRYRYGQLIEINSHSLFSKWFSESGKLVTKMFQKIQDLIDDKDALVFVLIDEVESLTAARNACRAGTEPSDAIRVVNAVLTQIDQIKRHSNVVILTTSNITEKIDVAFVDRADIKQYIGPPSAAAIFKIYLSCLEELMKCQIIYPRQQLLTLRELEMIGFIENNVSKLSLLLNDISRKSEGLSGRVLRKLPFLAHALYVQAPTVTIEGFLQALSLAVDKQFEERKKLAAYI

Sequences of proteins named here, by UniProt entry; tags and fusion partners are left off.
UniProt Q12834: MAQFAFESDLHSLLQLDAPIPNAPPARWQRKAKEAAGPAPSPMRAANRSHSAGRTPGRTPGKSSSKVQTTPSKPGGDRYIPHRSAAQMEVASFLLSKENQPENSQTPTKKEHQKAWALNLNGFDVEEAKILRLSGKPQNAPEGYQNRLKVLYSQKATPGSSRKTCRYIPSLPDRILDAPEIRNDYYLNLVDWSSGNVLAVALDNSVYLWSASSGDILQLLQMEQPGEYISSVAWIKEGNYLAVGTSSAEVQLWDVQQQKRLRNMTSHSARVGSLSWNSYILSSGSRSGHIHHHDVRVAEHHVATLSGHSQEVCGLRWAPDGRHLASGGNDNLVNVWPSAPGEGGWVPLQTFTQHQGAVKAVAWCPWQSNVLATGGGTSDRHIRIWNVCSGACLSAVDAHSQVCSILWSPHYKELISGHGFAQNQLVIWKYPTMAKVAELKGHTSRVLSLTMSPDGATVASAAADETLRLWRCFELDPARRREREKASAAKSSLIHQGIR
UniProt Q13257: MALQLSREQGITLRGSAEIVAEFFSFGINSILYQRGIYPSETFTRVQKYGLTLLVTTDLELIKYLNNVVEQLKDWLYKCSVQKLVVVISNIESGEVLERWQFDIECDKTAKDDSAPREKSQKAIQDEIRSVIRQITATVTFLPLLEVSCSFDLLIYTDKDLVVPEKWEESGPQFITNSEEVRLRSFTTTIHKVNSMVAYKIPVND
UniProt O60934: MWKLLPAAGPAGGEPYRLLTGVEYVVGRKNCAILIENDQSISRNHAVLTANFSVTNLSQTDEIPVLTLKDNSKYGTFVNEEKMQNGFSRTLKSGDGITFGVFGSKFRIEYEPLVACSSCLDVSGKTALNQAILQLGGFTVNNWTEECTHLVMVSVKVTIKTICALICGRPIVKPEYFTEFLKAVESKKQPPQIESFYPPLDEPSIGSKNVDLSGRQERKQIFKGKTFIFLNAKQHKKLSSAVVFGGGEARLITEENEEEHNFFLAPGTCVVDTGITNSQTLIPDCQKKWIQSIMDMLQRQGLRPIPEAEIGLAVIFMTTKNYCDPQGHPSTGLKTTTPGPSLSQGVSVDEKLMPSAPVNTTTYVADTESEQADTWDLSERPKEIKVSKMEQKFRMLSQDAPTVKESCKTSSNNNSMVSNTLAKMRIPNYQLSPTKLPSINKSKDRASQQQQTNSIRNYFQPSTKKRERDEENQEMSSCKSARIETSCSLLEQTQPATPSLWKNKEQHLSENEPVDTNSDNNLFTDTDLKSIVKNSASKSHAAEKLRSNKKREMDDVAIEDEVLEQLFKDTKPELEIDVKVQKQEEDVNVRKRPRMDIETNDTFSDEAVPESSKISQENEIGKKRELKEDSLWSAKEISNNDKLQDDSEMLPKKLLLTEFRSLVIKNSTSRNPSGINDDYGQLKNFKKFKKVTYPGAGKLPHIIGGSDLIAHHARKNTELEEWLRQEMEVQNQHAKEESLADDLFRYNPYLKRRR
UniProt Q92878: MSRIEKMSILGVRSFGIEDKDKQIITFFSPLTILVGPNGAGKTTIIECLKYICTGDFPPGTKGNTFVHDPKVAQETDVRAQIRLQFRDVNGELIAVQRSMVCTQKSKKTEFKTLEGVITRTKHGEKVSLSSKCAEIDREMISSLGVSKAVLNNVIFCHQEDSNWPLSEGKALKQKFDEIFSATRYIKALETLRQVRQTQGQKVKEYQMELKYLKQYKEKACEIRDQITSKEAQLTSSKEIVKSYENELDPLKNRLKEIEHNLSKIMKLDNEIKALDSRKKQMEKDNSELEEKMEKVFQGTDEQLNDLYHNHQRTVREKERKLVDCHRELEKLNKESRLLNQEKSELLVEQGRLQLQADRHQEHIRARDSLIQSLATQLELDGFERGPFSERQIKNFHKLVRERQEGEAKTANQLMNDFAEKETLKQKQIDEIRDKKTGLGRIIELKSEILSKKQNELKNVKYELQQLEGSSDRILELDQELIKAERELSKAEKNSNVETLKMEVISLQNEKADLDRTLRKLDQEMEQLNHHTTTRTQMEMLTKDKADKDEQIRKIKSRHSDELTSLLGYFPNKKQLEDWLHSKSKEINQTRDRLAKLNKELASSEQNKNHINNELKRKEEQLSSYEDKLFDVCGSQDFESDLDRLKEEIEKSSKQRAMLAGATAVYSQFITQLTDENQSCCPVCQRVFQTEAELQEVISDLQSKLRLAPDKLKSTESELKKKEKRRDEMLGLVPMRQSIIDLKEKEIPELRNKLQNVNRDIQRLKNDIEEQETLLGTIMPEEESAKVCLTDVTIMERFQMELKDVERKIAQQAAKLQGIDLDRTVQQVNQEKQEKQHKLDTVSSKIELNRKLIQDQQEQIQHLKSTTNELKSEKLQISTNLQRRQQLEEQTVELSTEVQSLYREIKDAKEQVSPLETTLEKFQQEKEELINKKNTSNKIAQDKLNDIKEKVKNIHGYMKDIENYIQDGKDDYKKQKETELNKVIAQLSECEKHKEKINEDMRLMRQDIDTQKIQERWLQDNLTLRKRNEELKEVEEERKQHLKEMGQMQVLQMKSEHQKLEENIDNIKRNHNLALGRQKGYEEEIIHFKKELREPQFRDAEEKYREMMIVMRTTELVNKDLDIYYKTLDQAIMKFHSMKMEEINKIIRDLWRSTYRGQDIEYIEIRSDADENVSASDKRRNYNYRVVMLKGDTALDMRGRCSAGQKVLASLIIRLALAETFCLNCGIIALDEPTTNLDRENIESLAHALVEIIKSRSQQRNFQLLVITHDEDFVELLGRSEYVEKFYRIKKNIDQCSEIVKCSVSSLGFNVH

[2] = target: T1, Myc-BioID2-TRIP13 (human); assay: proximity labelling; BioID2 proximity labelling with SILAC quantitative mass spectrometry; Myc-BioID2-TRIP13 against Myc-BioID2 alone; without induced DNA damage

Molecule | binding [1] | binding [2]
CDC20 (from UniProt Q12834 1-499) | binds | 
MAD2 (from UniProt Q13257 1-205) | binds | 
NBS1 (from UniProt O60934 1-754) |  | no binding
RAD50 (from UniProt Q92878 1-1312) | binds | 
p31comet (protein, UniProt Q15013 1-274) MAAPEAEVLSSAAVPDLEWYEKSEETHASQIELLETSSTQEPLNASEAFCPRDCMVPVVFPGPVSQEGCCQFTCELLKHIMYQRQQLPLPYEQLKHFYRKPSPQAEEMLKKKPRATTEVSSRKCQQALAELESVLSHLEDFFARTLVPRVLILLGGNALSPKEFYELDLSLLAPYSVDQSLSTAACLRRLFRAIFMADAFSELQAPPLMGTVVMAQGHRNCGEDWFRPKLNYRVPSRGHKLTVTLSCGRPSIRTTAWEDYIWFQAPVTFKGFRE | binds | 
